Among all 3,000 compounds or so, about 45 (2%) showed an effect of 50% or more. Some of the results follow.
Each molecule was assayed on MOLM1 and UCSD/AML1 (averaged) (assay: cell viability relative to DMSO control (POC); higher = less growth inhibition). Settings: 1 µM; 72 h.
Protocol: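 Primary viability screen in the 3q26 EVI1-high AML cell lines MOLM1 and UCSD/AML1, compounds at 1 uM for 72 h. ATP CellTiter-Glo read-out given as percent viable over DMSO control (POC), averaged over duplicates. This mapping covers the TimTec NDL-3000 natural derivative library, whose compounds are identified by TimTec catalogue codes (ST...).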
For COC(=O)c1c(NC(=O)COC(=O)CN2C(=O)c3c(Cl)c(Cl)c(Cl)c(Cl)c3C2=O)sc2c1CCC(C)C2 (stereo not drawn), the cell viability was 107%.
For CC(C)OC(=O)C1=C(N)Oc2c(oc(CO)cc2=O)C1c1ccc(Cl)cc1 (stereo not drawn), the cell viability was 96.2%.
O=c1[nH]c(NCCCO)c(Br)c(=O)[nH]1 gave a cell viability of 103%.
CCCCC(NC(=O)CCC(=O)O)C(=O)O (stereo not drawn) showed a cell viability of 97.4%.
In the case of CCOC(=O)/C(C#N)=C/c1ccc(Cl)cc1, the cell viability is reported as 102%.
Work on Cc1ccc2[nH]c(C)c(CCNC(=O)c3cc(S(=O)(=O)N(C)C)c(Cl)cc3Cl)c2c1 yielded a cell viability of 94.4%.
For CCc1cccc(C)c1NC(=O)CSc1nc2c(=O)[nH]cnc2n1C, the cell viability was 91.6%.
Work on C#CCSc1nc(N)c2c(n1)OC(N)=C(C#N)C2c1cccc(F)c1 (stereo not drawn) yielded a cell viability of 74.4%.
COc1ccc(N2C(=O)c3ccccc3NC2c2ccc(OC)cc2O)cc1 (stereo not drawn) gave a cell viability of 110%.
Molecule Cc1ccc(/C=C2\Oc3cc(O)ccc3C2=O)cc1 has a cell viability of 98.7%.
Cc1cc(OCC(=O)Nc2ccc(-c3cc4ccccc4oc3=O)c(C)c2)ccc1Cl showed a cell viability of 98.7%.
Molecule COc1cc2c(=O)n(-c3ccccc3)c(SCC(=O)N3CCCC3)nc2c(OC)c1OC has a cell viability of 105%.
With COc1cc(C2C(C#N)=C(N)OC3=C2C(=O)CCC3)cc2c1OCO2 (stereo not drawn) the cell viability was 116%.
O=c1[nH]c2ccccc2c(=O)n1CCO gave a cell viability of 108%.
In the case of COc1cc(/C=N/NC(=O)CCNc2n[nH]c(=O)[nH]c2=O)ccc1OCc1ccccc1, the cell viability is reported as 94.3%.
With CCCCCCCCCSc1nc2c(c(=O)[nH]c(=O)n2C)n1Cc1cccc(C)c1 the cell viability was 107%.
Work on COc1cccc(-c2nc(CSc3nc4c(=O)[nH]c(C)nc4n3C)c(C)o2)c1OC yielded a cell viability of 97.2%.
With COc1ccc(OC)c(NC(=O)c2cc(OC)c(OC)c(OC)c2)c1 the cell viability was 85.9%.
O=C(O)/C=C/c1cccc([N+](=O)[O-])c1 showed a cell viability of 103%.
CCOc1cc(C2C(C(=O)OCCOC)=C(C)NC3=C2C(=O)CC(c2ccc(Cl)cc2)C3)cc(Br)c1O (stereo not drawn) gave a cell viability of 98.2%.
COc1cccc(NC(=O)Cn2c(=O)cc(C(=O)N3CCOCC3)c3ccccc32)c1 showed a cell viability of 104%.
CCN(C(=O)c1ccc(OC)c(OC)c1)c1ccccc1C showed a cell viability of 83.1%.
With O=C1C2OCC(O2)[C@@H]2[C@@H]1[C@@H]1c3ccccc3C=CN1[C@H]2C(=O)c1ccc(F)cc1 (stereo partly drawn) the cell viability was 90.3%.
Cc1cc(=O)n2c3c(cccc13)CCC2 was tested, and the cell viability was 97.9%.
Work on Cc1ccc(NC(=O)CSc2nc3c(=O)[nH]cnc3n2C)c(Cl)c1 yielded a cell viability of 91.1%.
For COc1cc(/C=N/NC(=O)c2ccccc2N)ccc1O, the cell viability was 107%.
In the case of O=C(Cn1c(=O)sc2cc(S(=O)(=O)N3CCOCC3)ccc21)N1CCc2ccccc2C1, the cell viability is reported as 101%.
In the case of COCCOC(=O)c1c(C)n(-c2cccc(Cl)c2)c2c1cc(O)c1ccccc12, the cell viability is reported as 98.8%.
With C/C(=N\N=C1\C(=O)Nc2ccccc21)c1c(O)c2ccccc2n(-c2ccccc2)c1=O the cell viability was 100%.
O=C(/C=C/c1ccc2c(c1)OCO2)N(C(=O)NCc1ccco1)c1ccccc1 gave a cell viability of 97.3%.
Work on N#Cc1cn(CC(=O)NCCc2c[nH]c3ccccc23)c2ccccc12 yielded a cell viability of 105%.
With O=C(CCNc1ccc(F)c(Cl)c1)c1cc2ccccc2oc1=O the cell viability was 91%.
Cc1c(C(=O)N2CCCCC2)[nH]c2ccc(OCc3ccccc3)cc12 gave a cell viability of 102%.
COCCOC(=O)C1=C(N)Oc2c(oc(CO)cc2=O)C1c1ccccc1F (stereo not drawn) showed a cell viability of 121%.
In the case of COc1ccc(C(=O)COC(=O)c2cccc(NC(=O)c3ccc(OC)c(OC)c3)c2)cc1, the cell viability is reported as 112%.
COC(=O)CNC(=O)c1ccc(Cl)c([N+](=O)[O-])c1 was tested, and the cell viability was 94.2%.
With CN(C)C(=O)c1ccc(NCCC(=O)c2cc3ccccc3oc2=O)cc1 the cell viability was 93.1%.
Work on Cc1[nH]c2ccc(F)cc2c1CCNC(=O)c1cc2ccccc2oc1=O yielded a cell viability of 102%.
CCOc1ccc2oc(=O)cc(CN3CCN(CC(=O)NC4CCCC4)CC3)c2c1 gave a cell viability of 95.6%.
In the case of COc1cc(-c2nn(CNc3ccc(C)cc3)c(=S)o2)cc(OC)c1OC, the cell viability is reported as 101%.
O=C(O)C1Cc2c([nH]c3ccccc23)C(c2ccc(Cl)cc2)N1 (stereo not drawn) gave a cell viability of 109%.
Work on Cc1cc(=O)[nH]c(=O)n1COCCOc1ccc(Cl)cc1 yielded a cell viability of 114%.
CCOC(=O)c1cccc(NC(=O)c2cc(OC)cc(OC)c2)c1 showed a cell viability of 96.2%.
COc1cc(CNC(=O)c2ccccc2Br)cc(OC)c1OC gave a cell viability of 83.5%.
Molecule COc1cc(NC(=O)c2cc(OC)c(OC)c(OC)c2)c(OC)cc1Cl has a cell viability of 99%.
Molecule C[C@@H](O)[C@H](NC(=O)OCc1ccccc1)C(=O)OCc1ccccc1 has a cell viability of 96.9%.
In the case of CCOC(=O)Cn1ccc(NC(=O)c2ccc3c(c2)OCO3)n1, the cell viability is reported as 97%.
Work on CCOc1ccc(C(=O)NCCn2cc(Cl)cn2)cc1OCC yielded a cell viability of 94.2%.
C=C(C)C1CCC2(COC(C)=O)CCC3(C)C(CCC4C5(C)CCC(=O)C(C)(C)C5CCC43C)C12 (stereo not drawn) gave a cell viability of 89%.
With CN(C)C(=O)CSc1nc(N)cc(=O)[nH]1 the cell viability was 101%.
CCOc1cc(/C=C/C(=O)c2ccccc2)ccc1OCc1ccccc1Cl showed a cell viability of 102%.
CC(=O)OC1CCC2(C)C(CCC3(C)C2C(=O)C=C2C4CC(C)(C(=O)OCC5CCCN6CCCCC56)CCC4(C)CCC23C)C1(C)C (stereo not drawn) was tested, and the cell viability was 91.3%.
COc1cccc(CCCN)c1 was tested, and the cell viability was 101%.
Molecule COc1cccc(CN2COc3c(cc4c(C)c(C)c(=O)oc4c3C)C2)c1 has a cell viability of 96.1%.
CC(NC(=O)CSc1nc2ccccc2c(=O)[nH]1)c1nc2ccccc2[nH]1 (stereo not drawn) was tested, and the cell viability was 104%.
Work on COc1ccc(C(O)C(=O)O)cc1O (stereo not drawn) yielded a cell viability of 91.4%.
COc1cc(OC)c(OC)cc1/C=C(\C#N)C(=O)OC(C)C gave a cell viability of 88%.
With CC(=O)OC1CCC2(C)C(CCC3(C)C2C(=O)C=C2C4CC(C)(C(=O)Nc5cccc6ccccc56)CCC4(C)CCC23C)C1(C)C (stereo not drawn) the cell viability was 104%.
In the case of NC(C(=O)O)C(O)c1ccc(OCc2ccccc2)c(OCc2ccccc2)c1 (stereo not drawn), the cell viability is reported as 102%.
For CCOc1ccc(/C=C2/Oc3ccc(C(=O)OC)cc3C2=O)cc1OCC, the cell viability was 96.6%.
Molecule COCC(=O)c1c(O)cc(O)cc1O has a cell viability of 112%.
In the case of Cc1cc2c(C(C)C)c(O)c(O)c(C=NCCC3=CCCCC3)c2c(O)c1-c1c(C)cc2c(C(C)C)c(O)c(O)c(C=NCCC3=CCCCC3)c2c1O, the cell viability is reported as 114%.
For CCc1ccc(OCCn2c(C)c(C(=O)OCCOC)c3cc(O)c4ccccc4c32)cc1, the cell viability was 85.8%.
For CCOC(=O)c1cc(CSc2nc3c(=O)[nH]cnc3n2-c2ccc(C)cc2)on1, the cell viability was 101%.
For COc1cc(OC)cc(C(=O)Nc2cc(OC)cc(S(=O)(=O)c3ccc(Cl)cc3)c2)c1, the cell viability was 92.8%.
COc1cc(-c2nnc(SCC(=O)N/N=C/c3cccnc3)n2-c2ccccc2)cc(OC)c1OC was tested, and the cell viability was 97.2%.
CCOc1ccccc1C1C2CCCCC2(O)CCN1C/C=C/c1ccccc1 (stereo not drawn) gave a cell viability of 72.6%.
With O=C(Nc1ccccc1)C1=Cc2ccccc2OC1 the cell viability was 101%.
NC(CCCC(N)C(=O)O)C(=O)O (stereo not drawn) gave a cell viability of 104%.
Cc1cc(=O)oc2cc(NC(=O)c3cc4ncc(Br)cn4n3)ccc12 gave a cell viability of 109%.
With Cc1ccc2[nH]c(C)c(CCNC(=O)c3cc4ccccc4oc3=O)c2c1 the cell viability was 100%.
For CC1(C(=O)O)CCC2(C)CCC3(C)C(=CC(=O)C4C5(C)CCC(OC6OC(C(=O)O)C(O)C(O)C6OC6OC(C(=O)O)C(O)C(O)C6O)CC5CCC43C)C2C1.CC1(C(=O)O)CCC2(C)CCC3(C)C(=CC(=O)C4C5(C)CCC(OC6OC(C(=O)O)C(O)C(O)C6OC6OC(C(=O)O)C(O)C(O)C6O)CC5CCC43C)C2C1.[Zn] (stereo not drawn), the cell viability was 102%.
CCC(C)C(NC(C)=O)C(=O)O (stereo not drawn) was tested, and the cell viability was 95.6%.
With Cn1cnc2c(N)ncnc21 the cell viability was 107%.
COC1OC2COC(c3ccccc3)OC2C(O)C1OS(=O)(=O)c1ccc(C)cc1 (stereo not drawn) gave a cell viability of 80.9%.
COc1cc(C2C(C#N)=C(N)Oc3n[nH]c(-c4ccccc4)c32)cc(OC)c1OC (stereo not drawn) was tested, and the cell viability was 100%.
CCc1nnc(NC(=O)CN2CCc3ccccc3C2)s1 showed a cell viability of 109%.
In the case of Cn1c(=O)[nH]c(=O)c2c1nc(N1CCN(C(=O)CCC(=O)O)CC1)n2Cc1ccc([N+](=O)[O-])cc1, the cell viability is reported as 96.4%.
Work on Cc1[nH]c2ccccc2c1CCNC(=O)c1ccc(Cl)c([N+](=O)[O-])c1 yielded a cell viability of 98.3%.
Work on CC(C)COc1ccc(C(=O)N/C(=C\c2ccccc2)C(=O)NCCNC(=O)/C(=C\c2ccccc2)NC(=O)c2ccc(OCC(C)C)cc2)cc1 yielded a cell viability of 103%.
O=C(O)C1C2C=CC(C2)C1C(=O)N1CCc2ccccc2C1 (stereo not drawn) was tested, and the cell viability was 98.6%.
In the case of CC(=O)OCC1OC(NC(=O)OC2CCCCC2)C(OC(C)=O)C(OC(C)=O)C1OC(C)=O (stereo not drawn), the cell viability is reported as 103%.
In the case of CC(=O)OC1CC(n2cc(C)c(=O)[nH]c2=O)OC1CO (stereo not drawn), the cell viability is reported as 98.2%.
With Cc1ccc(-n2c(SCC(=O)Nc3cccc(F)c3)nc3c(=O)[nH]cnc32)cc1 the cell viability was 100%.
c1ccc(Cn2nnnc2SCc2nc3ccccc3[nH]2)cc1 showed a cell viability of 98.4%.
Molecule O=C(Cn1c(=O)cc(C(=O)N2CCc3ccccc3C2)c2ccccc21)Nc1ccc2c(c1)OCCO2 has a cell viability of 103%.
With N#Cc1c(-c2ccc(Cl)cc2)cc(-c2ccc3c(c2)OCO3)[nH]c1=O the cell viability was 91.5%.
COc1cc(C(=O)Nc2nccs2)cc(OC)c1OC showed a cell viability of 98.2%.
COc1ccc(-c2nnc(SCc3nc4ccccc4[nH]3)o2)cc1OC gave a cell viability of 95.3%.
Molecule CCOC(=O)c1ccc(NC(=O)CSc2nc3ccccc3c(=O)[nH]2)cc1 has a cell viability of 85.1%.
Work on CC/C(O)=C1\C(=O)CCCC1=NCCc1c(C)[nH]c2ccc(OC(F)(F)F)cc12 yielded a cell viability of 102%.
In the case of Cn1c(=O)c2c(nc(Sc3nc4ccccc4[nH]3)n2Cc2ccc(Cl)cc2Cl)n(C)c1=O, the cell viability is reported as 94.8%.
With CC(C)C(=O)Oc1ccc2c(=O)c(Oc3ccc4ccccc4c3)coc2c1 the cell viability was 92.6%.
COc1ccc(-c2cc(-c3ccccc3)nc3sc(C(=O)N4CCC[C@H]4C(=O)O)c(N)c23)cc1 gave a cell viability of 94.3%.
Work on CCOc1ccc(NC(=O)CSc2nc3c(=O)[nH]cnc3n2C)cc1 yielded a cell viability of 103%.
Work on O=c1oc2c(Br)cc(Cl)cc2c(-c2ccccc2)c1-c1ccc(Br)cc1 yielded a cell viability of 76.8%.
In the case of C=CCOC1OC(COC(C)=O)C(OC(C)=O)C(OC(C)=O)C1OC(C)=O (stereo not drawn), the cell viability is reported as 91.1%.
Molecule COc1cc(-c2oc3c(OC)c(OC4OC(COC(C)=O)C(O)C(O)C4OC4OC(C)C(O)C(O)C4O)cc(O)c3c(=O)c2O)ccc1O (stereo not drawn) has a cell viability of 106%.

From the supplement of paper PMC11150407
